## Percent effect of library compounds

The values are deposited in ChEMBL (CHEMBL3988442, “University of Dundee, Small-Polar-MMV Screening Library” (2021)).

Results are given as percent effect. The controls that fix the scale are not given in the record; negative values are as filed. Compounds were drawn at random from those tested, without regard to their results.

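Assay of Toxoplasma gondii numbers, read through their beta-galactosidase reporter with a colour substrate. Concentration: 50 µM. Higher reads as fewer parasites (inferred from which compounds were picked for retests). About 18,000 compounds were tested under these conditions; 0.94% (about 170) showed 50% or more at least once.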

* Nc1nnc(-c2cccc(O)c2)[nH]1 | -10.47%
* CC1CCCCN1S(=O)(=O)N1CCN(C)CC1 (centres undefined) | 4.596%
* CCN(CC)CCOc1ccc(CN)cc1 | 12.94%
* CCNS(=O)(=O)C1CCN(Cc2cn(C)nc2CC)C1 (centres undefined) | -9.814%
* NCC1CCC2(CCCC2)O1 (centres undefined) | -21.94%
* Cc1ccoc1CNC(C)Cn1cncn1 (centres undefined) | 8.931%
* COCCNC(=O)CN1CCCC1 | -7.128%
* CN(C)CCOc1cnccc1CN | -6.742%
* COC(C(=O)Nc1cnccc1CO)c1ccccc1 (centres undefined) | -2.978%
* Cc1cc(N(C)C)n2nccc2n1 | 6.096%
* CS(=O)(=O)NCCNC(=O)N1CCc2ccccc2C1 | -3.617%
* CCc1nc(CNc2ccncc2C(N)=O)cs1 | 0%
* O=C1NC(c2cc[nH]n2)Nc2ncccc21 (centres undefined) | -9.997%
* Cn1c(NC(=O)c2ccccc2I)cc(=O)n(C)c1=O | -1.662%
* COCCC(C)(C)CN | 5.195%
* Cc1ccc(NC(=O)C2=NN(C)C(=O)CC2)cc1Cl | 6.717%
* CO[C@H]1CNCC1NC(=O)c1scnc1C (some centres undefined) | 7.029%
* CN1C(=O)[C@H]2CN(Cc3ccc(Cl)cc3)C[C@H]2C1=O | -4.756%
* Cc1cc(NC(=O)NCC(O)CN2CCCCC2)no1 (centres undefined) | -15.33%
* OC1(CNCCOCc2ccc(Cl)cc2)CCCNC1 (centres undefined) | 57.1%
* CC(C)Cc1nc(CN2C(=O)CCNC2=O)no1 | 1.769%
* CNC(=O)CCNS(=O)(=O)c1cc(C)cc(Br)c1 | -21.12%
* NCc1cc(F)c(N2CCOCC2)c(F)c1 | 4.923%
* CC(C)(N)c1nnc[nH]1 | -11.29%
* COCCNC(=O)CSc1nnc2n1CCCCC2 | 1.755%
* CCC(C)(C)C(=O)NC1CNC[C@@H]1OC (some centres undefined) | -19.28%
* N#Cc1ccc(OCCOCCn2cncn2)cc1 | 4.536%
* NC(=O)COC(=O)COc1cccc2ccccc12 | -7.416%
* O=C(NCCc1nnc2n1CCC2)c1cncc(Br)c1 | -19.1%
* COc1ccc(C(=O)NCc2cnn(C)c2C)o1 | -4.523%
* COCC(=O)NCCNS(=O)(=O)c1ccc(C)cc1 | -5.26%
* CC(=O)Nc1ccnn1Cc1ccccc1F | 4.186%
* CCOc1c(Cl)cc(CN)cc1OC | 0.9456%
* CCc1ccsc1CNS(N)(=O)=O | -14.96%
* CC(NC(=O)C(C)(C)C)c1ccncc1 (centres undefined) | -20.59%
* CC(C)(C)Oc1ccc(C#N)cn1 | 4.22%
* CC(C)N(C)C(=O)C1CCCNC1 (centres undefined) | -3.622%
* Cn1cc(NC(=O)CCc2ccco2)cc(Br)c1=O | -0.9806%
* COc1ccc(CNC(=O)CCC2CCCO2)cn1 (centres undefined) | -0.2947%
* O=C(NCC(=O)N1CCCC1)c1cccc2cn[nH]c12 | 13.91%
* CCOC(=O)C(CN)CC(C)C (centres undefined) | -0.7009%
* CC(C)c1nc(CN(CCO)Cc2nccn2C)co1 | 0.9936%
* COCCn1cc(C(C)N)cn1 (centres undefined) | 11.11%
* CCC(C)(C)C(=O)NC1CCN(c2ncccc2F)C1 (centres undefined) | 30.31%
* CCOc1ccc(C(=O)N(C)C2CCN(C)C2=O)cc1 (centres undefined) | -1.953%
* CC(C)CC(=O)NC(C(=O)NC1=NCCS1)C(C)C (centres undefined) | -1.098%
* NC(=O)c1ccc(=O)n(Cc2ccc(Br)s2)n1 | -5.581%
* COCCNC(=O)C1CCN(Cc2ccccc2)CC1 | 2.842%
* COCC(N)c1ccccc1 (centres undefined) | 3.787%
* CN(C)c1nc(C[S+]([O-])Cc2ccccc2)ns1 (centres undefined) | 3.242%
* FC(F)(F)c1c[nH]c(C2CCCNC2)n1 (centres undefined) | -1.701%
* Cc1ccc[nH]c1=O | -17.49%
* COCc1ccc(C(=O)NC2CCC(O)CC2)cc1 (centres undefined) | -19.36%
* NC1CCc2sccc2NC1=O (centres undefined) | -22.37%
* Cc1nc(C)n(CC(=O)Nc2ccccc2)c(=O)c1C | 12.01%
* Cc1noc(Cn2cc(S(=O)(=O)N(C)C)ccc2=O)n1 | -12.03%
* CCn1cc(NC(=O)NCCCNC(C)=O)cn1 | -5.815%
* CC(=O)c1c[nH]c(C(=O)NCc2cnn(C)c2C)c1 | 19.61%
* CN1CCCCC1CN1CCc2c(c(CO)nn2C)C1 (centres undefined) | 4.006%
* Cc1cccc(C)c1NC(=O)CN1CCN(C)CC1 | 19.43%

6 of the entries, repeated:

structure,percent effect
Cn1cc(NC(=O)CCc2ccco2)cc(Br)c1=O,-0.9806%
CN1C(=O)[C@H]2CN(Cc3ccc(Cl)cc3)C[C@H]2C1=O,-4.756%
CC(C)N(C)C(=O)C1CCCNC1 (centres undefined),-3.622%
Cc1nc(C)n(CC(=O)Nc2ccccc2)c(=O)c1C,12.01%
CS(=O)(=O)NCCNC(=O)N1CCc2ccccc2C1,-3.617%
CCOc1c(Cl)cc(CN)cc1OC,0.9456%